According to article PMC2908686:
No constants are given. Whether binding was seen depends on the method and setting. Binding seen in cells or lysates may run through a third protein. For part of these data: Binding can be weak; no strength is given. Where a sequence is shown, tags or fusion partners need not be part of it.

Columns and labels:
Assay in all cases: co-IP; same FLAG-IPs of the TPR proteins from HEK-293 lysates; co-precipitated endogenous Hsp90 and Hsp70 by Coomassie staining (Hsp70 background on the resin subtracted), p23 by immunoblot; normalized to the precipitated TPR cofactor; experiments with different steroid receptors pooled
[1] = target: T1, hepatitis virus B X-associated protein 2 (XAP2), C-terminal FLAG fusion (UniProt O00170)
T1 sequence: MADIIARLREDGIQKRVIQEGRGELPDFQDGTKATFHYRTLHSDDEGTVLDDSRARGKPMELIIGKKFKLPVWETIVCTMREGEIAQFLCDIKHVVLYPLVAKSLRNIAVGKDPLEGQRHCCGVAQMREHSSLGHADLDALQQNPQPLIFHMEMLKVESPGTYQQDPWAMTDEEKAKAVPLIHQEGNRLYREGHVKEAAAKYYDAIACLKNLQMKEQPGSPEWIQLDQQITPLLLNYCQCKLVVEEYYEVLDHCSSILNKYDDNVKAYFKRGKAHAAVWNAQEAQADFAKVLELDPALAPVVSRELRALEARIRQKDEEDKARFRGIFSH

[2] = target: T2, FK506 binding protein 51 (FKBP51), C-terminal FLAG fusion (UniProt Q13451)
T2 sequence: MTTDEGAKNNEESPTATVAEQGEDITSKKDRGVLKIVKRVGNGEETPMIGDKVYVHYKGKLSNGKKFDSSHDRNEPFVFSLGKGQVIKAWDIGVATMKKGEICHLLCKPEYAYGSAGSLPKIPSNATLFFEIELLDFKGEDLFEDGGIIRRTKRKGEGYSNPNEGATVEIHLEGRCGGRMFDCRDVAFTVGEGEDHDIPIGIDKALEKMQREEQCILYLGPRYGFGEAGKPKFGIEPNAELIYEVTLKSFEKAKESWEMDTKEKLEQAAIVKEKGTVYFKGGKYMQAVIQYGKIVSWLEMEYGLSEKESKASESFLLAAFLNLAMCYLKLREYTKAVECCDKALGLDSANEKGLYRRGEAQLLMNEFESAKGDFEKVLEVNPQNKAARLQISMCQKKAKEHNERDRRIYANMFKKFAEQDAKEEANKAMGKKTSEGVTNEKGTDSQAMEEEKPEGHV

[3] = target: T3, FK506 binding protein 52 (FKBP52), C-terminal FLAG fusion (UniProt Q02790)
T3 sequence: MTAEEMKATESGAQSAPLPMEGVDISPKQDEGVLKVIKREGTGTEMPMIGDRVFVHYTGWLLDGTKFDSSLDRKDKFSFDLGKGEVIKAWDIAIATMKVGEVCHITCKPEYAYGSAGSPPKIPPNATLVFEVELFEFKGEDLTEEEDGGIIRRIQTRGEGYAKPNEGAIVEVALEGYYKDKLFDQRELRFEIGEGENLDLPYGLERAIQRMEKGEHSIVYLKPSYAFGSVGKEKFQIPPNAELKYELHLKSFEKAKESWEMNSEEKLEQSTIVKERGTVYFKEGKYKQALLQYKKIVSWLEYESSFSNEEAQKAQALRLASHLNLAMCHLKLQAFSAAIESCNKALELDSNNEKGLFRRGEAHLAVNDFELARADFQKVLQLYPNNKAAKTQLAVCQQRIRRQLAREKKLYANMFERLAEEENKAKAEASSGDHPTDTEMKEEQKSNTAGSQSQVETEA

binding [1]: no binding
binding [2]: binds weakly
binding [3]: no binding
Substance: Hsp70, endogenous (human (endogenous in HEK-293))
